# Test results from the supplement of paper PMC8616043.
# Structures can show the parent of a compound that is named as a salt. Some of the results follow. This data set is noisy: repeats of one test often differ as much as different tests do.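 Human U-2 OS cells stably expressing a GFP sensor with a nuclear import signal and classical export signal were transfected to produce PR50, a 50-repeat proline–arginine dipeptide from ALS/FTD gene C9ORF72. Nuclear-minus-cytoplasm GFP was scaled from DMSO (low) to PR-only (high), scored against plate test wells; strongly negative scores marked PR-reversing hits.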
# Test system: U-2 OS NCT-C biosensor cells expressing PR50
# Assay: Z-score of normalised NCT-C biosensor translocation index in PR50-expressing cells; higher = more nuclear biosensor (more disrupted nuclear export)
# Conditions: 3 µM; 24 h
row,SMILES,Z-score
1,CC(N)Cc1c[nH]c2ccc(O)cc12 (stereo not drawn) [alpha-Methyl-5- hydroxytryptamine maleate],inactive: 0.116
2,CN1C[C@H](CO)C=C2c3cccc4[nH]cc(c34)C[C@H]21 [Lysergol],inactive: 0.637
3,COC1=CC(=O)O[C@@H](CCc2ccc3c(c2)OCO3)C1 [Dihydromethysticin],inactive: 0.431
4,O=C1CCCN1CC#CCN1CCCC1 [Oxotremorine sesquifumarate salt],inactive: -0.885
5,CNCCc1c[nH]c2ccc(O)cc12 [N-omega-Methyl-5-hydroxytryptamine oxalate salt],inactive: -0.626
6,NCCCP(=O)(O)O [3-Aminopropyl phosphonic acid],inactive: -0.0461
7,COc1ccc(Cc2nccc3cc(OC)c(OC)cc23)cc1OC [Papaverine hydrochloride],inactive: -0.586
8,COc1ccc2c3c4n(c2c1)[C@H](C=C(C)C)OOC(C)(C)C[C@@H]4N1C(=O)[C@@H]2CCCN2C(=O)[C@]1(O)[C@H]3O [Verruculogen],inactive: -0.322
9,NNC(=O)c1ccc(O)cc1 [4-Hydroxy benzhydrazide],inactive: -0.174
10,C=C(C)[C@H]1Cc2c(ccc3c2O[C@@H]2COc4cc(OC)c(OC)cc4[C@@H]2C3=O)O1 [Rotenone],inactive: 0.513
11,COC(=O)C1=CCCN(C)C1 [Arecoline hydrobromide],inactive: 0.627
12,Fc1ccc(C(OCCN2CCN(CCCc3ccccc3)CC2)c2ccc(F)cc2)cc1,inactive: -0.127
13,NNC(N)=O [Semicarbazide hydrochloride],inactive: -0.577
14,O=C[C@H](Cl)[C@@H](O)[C@H](O)[C@H](O)CO [2-Chloro-2-deoxy- D-glucose],inactive: -0.377
15,CC[C@H]1[C@@H]2C[C@H]3[C@@H]4N(C)c5ccccc5[C@]45C[C@@H]([C@@H]2[C@H]5O)N3[C@@H]1O [Ajmaline],inactive: -0.211
16,CS(=N)(=O)CC[C@H](N)C(=O)O (stereo partly drawn) [L-Methionine sulfoximine],inactive: 0.146
17,CC1=CC(=O)C2=C(C)C[C@H](O)[C@@H]3[C@H](OC(=O)[C@H]3C)[C@@H]12 [Austricin],inactive: -0.328
18,COc1cc([C@@H]2c3cc4c(cc3[C@H](O)[C@H]3COC(=O)[C@H]23)OCO4)cc(OC)c1OC [Podophyllotoxin],inactive: 1.05
19,COc1cc([C@@H]2c3cc4c(cc3[C@H](O)[C@H]3COC(=O)[C@H]23)OCO4)cc(OC)c1OC [Podofilox],inactive: 1.15
20,COc1ccc(C(=O)O[C@H]2CC[C@@]3(C)[C@@H]4CC[C@H]5[C@]6(O)C[C@H](O)[C@@]7(O)[C@@H](CN8C[C@@H](C)CC[C@H]8[C@@]7(C)O)[C@]6(O)C[C@@]53O[C@]24O)cc1OC [Veratridine],inactive: 0.618
21,CC[C@H]1CN2CCc3cc(OC)c(OC)cc3[C@@H]2C[C@@H]1C[C@H]1NCCc2cc(OC)c(OC)cc21 [Emetine·2HCl],inactive: -0.673

# 3 records picked at random from those above:
row,SMILES,Z-score
19,COc1cc([C@@H]2c3cc4c(cc3[C@H](O)[C@H]3COC(=O)[C@H]23)OCO4)cc(OC)c1OC [Podofilox],inactive: 1.15
16,CS(=N)(=O)CC[C@H](N)C(=O)O (stereo partly drawn) [L-Methionine sulfoximine],inactive: 0.146
10,C=C(C)[C@H]1Cc2c(ccc3c2O[C@@H]2COc4cc(OC)c(OC)cc4[C@@H]2C3=O)O1 [Rotenone],inactive: 0.513

# (list continues)

row,SMILES,Z-score
1,CC[C@H]1CN2CCc3cc(OC)c(OC)cc3[C@@H]2C[C@@H]1C[C@H]1NCCc2cc(OC)c(OC)cc21 [Emetine dihydrochloride hydrate],inactive: 1.12
2,CN(C)NC(=O)CCC(=O)O [Daminozide],inactive: -1.87
3,NCCc1c[nH]c2ccc(O)cc12 [Serotonin hydrochloride],inactive: 0.00617
4,CCN(C(C)=O)c1cccc(-c2ccnc3c(C#N)cnn23)c1 [Zaleplon],inactive: -0.769
5,COc1ccc2c(c1)[nH]c1c(C)nccc12 [Harmine],inactive: -0.699
6,CC1(C)C(C=C(Cl)Cl)C1C(=O)OCc1cccc(Oc2ccccc2)c1 (stereo not drawn) [Permethrin],inactive: -0.214
7,"Ic1ccccc1CNC1C2CCN(CC2)C1C(c1ccccc1)c1ccccc1 [L-703,606 oxalate salt hydrate]",inactive: 0.502
8,CCCN(CCC)CCc1ccc(O)c(O)c1 [Dipropyldopamine hydrobromide],inactive: -0.0344
9,C[C@@]12N[C@@H](Cc3ccccc31)c1ccccc12 [(-)-MK-801  hydrogen maleate],inactive: -0.124
10,CCCN(CCC)[C@@H]1CCc2cccc(O)c2C1 [R-(+)-8-Hydroxy- DPAT  hydrobromide],inactive: 0.237
11,C=C(C)[C@@H]1[C@H]2OC(=O)[C@@H]1[C@]1(O)C[C@H]3OC34C(=O)O[C@H]2[C@@]41C.CC(C)(O)[C@@H]1[C@H]2OC(=O)[C@@H]1[C@]1(O)C[C@H]3OC34C(=O)O[C@H]2[C@@]41C (stereo partly drawn) [Picrotoxin],inactive: -0.234
12,C[C@H]1C(=O)O[C@@H]2CCN3CC=C(COC(=O)[C@](C)(O)[C@]1(C)O)[C@H]23 [Monocrotaline],inactive: -0.842
13,C[C@@]1(CO)[C@H](O)CC[C@@]2(C)[C@H]1CC[C@H]1C[C@@H]3C[C@@]12CC[C@]3(O)CO [Aphidicolin],inactive: -0.0136
14,Cc1cccc([C@H](C)c2c[nH]cn2)c1C [Dexmedetomidine·HCl],inactive: -0.558
15,CC(C)(C)NCC(O)c1ccccc1Cl (stereo not drawn) [Tulobuterol hydrochloride],inactive: -0.549
16,CC1(C(=O)O)C2CCC(O2)C1(C)C(=O)O (stereo not drawn) [Cantharidic Acid],inactive: -0.204
17,CCN1C[C@]2(COC)CC[C@H](O)[C@@]34C5C[C@@H]6[C@@H](OC)C[C@](O)(C(CC23)C14)C5[C@H]6OC(C)=O (stereo partly drawn) [Condelphine],inactive: -0.0514
18,CN(c1nc2ccccc2s1)C1CCN(C[C@H](O)COc2ccc(F)c(F)c2)CC1 [Lubeluzole dihydrochloride],inactive: -1.04
19,NC(=O)CN1CCCC1=O [Piracetam],inactive: 0.617
20,N#CCCN [3-Aminopropionitrile fumarate salt],inactive: 0.259
21,CN1CC[C@@]2(C)c3cc(OC(=O)Nc4ccccc4)ccc3N(C)[C@@H]12 [Phenserine],inactive: 0.33

# Rewritten with tabs: part of the list above
row	SMILES	Z-score
14	Cc1cccc([C@H](C)c2c[nH]cn2)c1C [Dexmedetomidine·HCl]	inactive: -0.558
17	CCN1C[C@]2(COC)CC[C@H](O)[C@@]34C5C[C@@H]6[C@@H](OC)C[C@](O)(C(CC23)C14)C5[C@H]6OC(C)=O (stereo partly drawn) [Condelphine]	inactive: -0.0514
19	NC(=O)CN1CCCC1=O [Piracetam]	inactive: 0.617

# More results follow:

row,SMILES,Z-score
1,C=C(C)[C@@H]1[C@H]2OC(=O)[C@@H]1[C@]1(O)C[C@H]3O[C@]34C(=O)O[C@H]2[C@]14C [Picrotoxinin],inactive: -0.875
2,C=CCN1C[C@H](C(=O)N(CCCN(C)C)C(=O)NCC)C[C@@H]2c3cccc4[nH]cc(c34)C[C@H]21 [Cabergoline],inactive: 0.213
3,COc1c2c3c4c(c(OC)c(=O)c5c(O)cc(OC)c(c6c(OC)cc(O)c(c1=O)c63)c54)[C@@H](C(C)=O)[C@@](C)(O)C2 [Hypocrellin A],inactive: -0.686
4,O=P1(NCCCl)OCCCN1CCCl (stereo not drawn) [Ifosfamide],inactive: 0.668
5,CO[C@H](C)[C@](O)(C(=O)OCC1=CCN2CC[C@H](O)[C@@H]12)C(C)C [Heliotrine],inactive: -0.268
6,Cc1c2ccncc2c(C)c2c1[nH]c1ccccc12 [Ellipticine],inactive: -0.418
7,CC(C)NP(=O)(NC(C)C)OP(=O)(NC(C)C)NC(C)C [Tetraisopropyl pyrophosphoramide],inactive: -0.796
8,C=C[C@]12CN(C)[C@@H]3[C@H]4CO[C@H](C[C@H]41)[C@]1(C(=O)Nc4ccccc41)[C@@H]32 [Gelsemine·HCl],inactive: 1.48
9,CSC(=S)NCc1c[nH]c2ccccc12 [Brassinin],inactive: 0.969
10,CC(=O)NBr [N-Bromoacetamide],inactive: 3.15
11,CC[C@@H](C(=O)O)[C@@H]1O[C@@H]([C@@H](C)[C@H](O)[C@H](C)C(=O)[C@H](CC)[C@H]2O[C@]3(C=C[C@@H](O)[C@]4(CC[C@@](C)([C@H]5CC[C@](O)(CC)[C@H](C)O5)O4)O3)[C@H](C)C[C@@H]2C)[C@@H](C)C[C@@H]1C [Narasin],inactive: -0.177
12,CC[C@@H]1/C=C/C=C/C[C@H](C)[C@H](O)[C@](C)(O)C(=O)[C@H](C)[C@@H](O)[C@H](C)C(=O)[C@H](C)[C@@H](O)[C@H](C)/C=C/C(=O)O[C@H]2[C@@H](C)[C@@H](CC1)O[C@@]1(CC[C@@H](C)[C@@H](C[C@H](C)O)O1)[C@@H]2C [Oligomycin A],inactive: 0.407
13,CC(C)(C)[C@]1(O)CC2OC(=O)CC23C(=O)OC2OC(=O)[C@H](O)C231 (stereo partly drawn) [Bilobalide],inactive: -0.829
14,C=C1[C@@H](C)[C@H]2[C@H](Cc3ccccc3)NC(=O)[C@]23OC(=O)/C=C/[C@H](O)CCC[C@@H](C)C/C=C/[C@H]3[C@@H]1O [Cytochalasin B],inactive: -0.474
15,NCCc1c[nH]c2ccccc12 [Tryptamine hydrochloride],inactive: 0.0491
16,Clc1ccc(N2C[C@H]3CC[C@@H](C2)N3)nn1,inactive: -0.365
17,COc1cc2c(cc1OC)C1CC(=O)C(CC(C)C)CN1CC2 (stereo not drawn) [Tetrabenazine],inactive: -0.675
18,O=C1CCC[C@@H]2[C@H]3CCCN4CCC[C@@H](CN12)[C@@H]34 [Matrine],inactive: -0.602
19,Cc1cccc(C)c1NC1=NCCCS1 [Xylazine hydrochloride],inactive: -0.522
20,CCCN1CCC[C@@H](c2cccc(O)c2)C1 [S(-)-3PPP  hydrochloride],inactive: -0.199
21,Cc1cc2c(C(C)C)c(O)c(O)c(C=O)c2c(O)c1-c1c(C)cc2c(C(C)C)c(O)c(O)c(C=O)c2c1O [Gossypol],inactive: -1.41
